The values that follow come from paper PMC4220969, “Structural basis for the recognition of muramyltripeptide by Helicobacter pylori Csd4, a D,L-carboxypeptidase controlling the helical cell shape” (Acta Crystallographica Section D: Biological Crystallography, 2014).

No constants are given. Whether binding was seen depends on the method and setting.

This experiment deals with Helicobacter pylori Csd4 (HP1075 in strain 26695), recombinant, residues Met22-Val438 (Helicobacter pylori strain 26695) (UniProt O25708). In words: crystal structure; Csd4 crystals (unbound, muramyltripeptide-bound, mDAP-bound), one monomer in the asymmetric unit; 200 mM calcium chloride, 100 mM HEPES pH 7.5, 25% PEG 3350; both purified.

B1: Helicobacter pylori Csd4 (HP1075 in strain 26695), recombinant, residues Met22-Val438 (enzyme, UniProt O25708 22-438)
chain: MIEKAPTNVEDRDKAPHLLLLAGIQGDEPGGFNATNLFLMHYSVLKGLVEVVPVLNKPSMLRNHRGLYGDMNRKFAALDKNDPEYPTIQEIKSLIAKPSIDAVLHLHDGGGYYRPVYVDAMLNPKRWGNCFIIDQDEVKGAKFPNLLAFANNTIESINAHLLHPIEEYHLKNTRTAQGDTEMQKALTFYAINQKKSAFANEASKELPLASRVFYHLQAIEGLLNQLNIPFKRDFDLNPNSVHALINDKNLWAKISSLPKMPLFNLRPKLNHFPLPHNTKIPQIPIESNAYIVGLVKNKQEVFLKYGNKLMTRLSPFYIEFDPSLEEVKMQIDNKDQMVKIGSVVEVKESFYIHAMDNIRANVIGFSVSNENKPNEAGYTIKFKDFQKRFSLDKQERIYRIEFYKNNAFSGMILVKFV
B1: the binding entry is “no binding”.
